Results are given in words; binding and its absence hold for the method and conditions named. In cells and extracts the contact can be indirect. Some binding calls cover weakened binding; strength is not graded here.
Target: Octamer-binding transcription factor 4 (OCT4) (UniProt Q01860)
Assay: co-IP; SiHa lysate (50 mM Tris-HCl, 150 mM NaCl, 1% NP-40, 2 mM EDTA, protease inhibitors), 800 ug protein incubated with Flag magnetic beads overnight at 4°C, rinsed with PBS; Western blot with anti-Flag, OCT4 or NCOR1 antibodies

Chains of the proteins cited; added tags and fusions are not shown.
UniProt Q01860: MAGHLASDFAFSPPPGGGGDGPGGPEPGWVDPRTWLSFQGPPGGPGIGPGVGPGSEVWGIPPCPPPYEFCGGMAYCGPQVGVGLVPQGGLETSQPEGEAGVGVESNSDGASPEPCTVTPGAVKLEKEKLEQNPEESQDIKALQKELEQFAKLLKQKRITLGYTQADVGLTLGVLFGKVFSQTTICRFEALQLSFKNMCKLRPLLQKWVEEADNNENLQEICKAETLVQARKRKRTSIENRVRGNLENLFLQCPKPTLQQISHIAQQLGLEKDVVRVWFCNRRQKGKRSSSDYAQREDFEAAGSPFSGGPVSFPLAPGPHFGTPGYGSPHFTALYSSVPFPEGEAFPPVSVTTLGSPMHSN
UniProt O75376: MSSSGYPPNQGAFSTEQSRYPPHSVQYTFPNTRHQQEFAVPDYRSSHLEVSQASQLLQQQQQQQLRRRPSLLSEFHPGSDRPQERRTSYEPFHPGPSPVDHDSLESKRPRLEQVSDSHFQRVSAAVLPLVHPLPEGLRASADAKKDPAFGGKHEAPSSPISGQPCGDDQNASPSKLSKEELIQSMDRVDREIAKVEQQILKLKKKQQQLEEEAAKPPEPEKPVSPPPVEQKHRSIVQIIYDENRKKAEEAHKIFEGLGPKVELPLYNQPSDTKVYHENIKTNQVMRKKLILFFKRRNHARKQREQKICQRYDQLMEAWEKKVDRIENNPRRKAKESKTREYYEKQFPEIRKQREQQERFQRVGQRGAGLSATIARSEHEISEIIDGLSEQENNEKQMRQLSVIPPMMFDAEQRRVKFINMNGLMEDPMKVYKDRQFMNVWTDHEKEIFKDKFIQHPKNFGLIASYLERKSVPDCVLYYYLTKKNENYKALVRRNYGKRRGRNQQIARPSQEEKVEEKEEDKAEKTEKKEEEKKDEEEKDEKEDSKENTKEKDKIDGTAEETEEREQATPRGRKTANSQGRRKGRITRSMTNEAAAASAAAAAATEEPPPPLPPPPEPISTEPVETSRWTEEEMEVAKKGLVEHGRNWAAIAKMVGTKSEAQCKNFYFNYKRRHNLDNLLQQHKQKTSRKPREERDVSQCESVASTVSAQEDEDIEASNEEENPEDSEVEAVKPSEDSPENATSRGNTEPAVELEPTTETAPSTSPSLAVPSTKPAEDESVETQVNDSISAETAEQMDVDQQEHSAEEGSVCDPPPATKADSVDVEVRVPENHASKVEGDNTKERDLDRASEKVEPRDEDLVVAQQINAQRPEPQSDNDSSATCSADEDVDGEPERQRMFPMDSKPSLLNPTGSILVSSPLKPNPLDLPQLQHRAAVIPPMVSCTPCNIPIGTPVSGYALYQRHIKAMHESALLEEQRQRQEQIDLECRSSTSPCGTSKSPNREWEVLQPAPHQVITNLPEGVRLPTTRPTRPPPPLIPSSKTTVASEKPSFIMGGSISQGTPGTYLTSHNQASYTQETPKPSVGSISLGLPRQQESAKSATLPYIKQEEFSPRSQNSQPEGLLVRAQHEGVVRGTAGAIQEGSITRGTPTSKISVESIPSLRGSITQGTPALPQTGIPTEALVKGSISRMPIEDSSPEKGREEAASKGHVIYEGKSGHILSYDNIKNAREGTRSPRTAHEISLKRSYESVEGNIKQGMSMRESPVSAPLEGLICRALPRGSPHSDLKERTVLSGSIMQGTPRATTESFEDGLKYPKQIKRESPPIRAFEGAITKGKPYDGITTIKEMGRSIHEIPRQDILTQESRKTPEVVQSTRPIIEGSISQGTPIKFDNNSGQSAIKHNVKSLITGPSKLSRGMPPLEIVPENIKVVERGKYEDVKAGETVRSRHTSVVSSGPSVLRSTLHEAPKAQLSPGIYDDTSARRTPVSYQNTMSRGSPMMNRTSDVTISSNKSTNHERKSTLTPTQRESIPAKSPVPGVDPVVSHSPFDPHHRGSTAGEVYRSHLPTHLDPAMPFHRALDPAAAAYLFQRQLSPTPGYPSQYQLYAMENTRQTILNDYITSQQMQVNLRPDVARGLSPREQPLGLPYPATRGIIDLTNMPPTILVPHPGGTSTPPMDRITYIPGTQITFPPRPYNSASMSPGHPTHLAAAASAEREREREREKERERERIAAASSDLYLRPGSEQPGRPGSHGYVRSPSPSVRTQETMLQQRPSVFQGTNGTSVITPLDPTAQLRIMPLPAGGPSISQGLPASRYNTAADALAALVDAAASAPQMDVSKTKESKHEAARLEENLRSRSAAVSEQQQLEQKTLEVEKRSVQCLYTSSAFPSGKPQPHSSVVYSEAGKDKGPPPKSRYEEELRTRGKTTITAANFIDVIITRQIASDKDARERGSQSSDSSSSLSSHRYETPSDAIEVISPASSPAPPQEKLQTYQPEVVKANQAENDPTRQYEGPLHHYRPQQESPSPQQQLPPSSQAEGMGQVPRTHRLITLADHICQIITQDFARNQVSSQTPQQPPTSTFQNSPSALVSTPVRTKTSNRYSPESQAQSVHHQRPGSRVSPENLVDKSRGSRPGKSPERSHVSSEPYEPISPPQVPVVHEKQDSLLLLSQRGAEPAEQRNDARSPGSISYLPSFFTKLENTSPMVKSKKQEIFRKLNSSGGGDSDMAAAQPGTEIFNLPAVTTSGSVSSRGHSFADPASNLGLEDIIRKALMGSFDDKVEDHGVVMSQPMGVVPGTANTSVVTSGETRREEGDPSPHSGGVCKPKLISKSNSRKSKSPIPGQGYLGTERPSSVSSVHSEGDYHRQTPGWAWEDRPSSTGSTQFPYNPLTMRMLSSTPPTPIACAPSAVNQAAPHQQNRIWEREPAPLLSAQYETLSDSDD

- binding: binds
Substance: NCOR1 (from UniProt O75376 1-2440)
